No constants are given. Whether binding was seen depends on the method and setting. Some results given as binding are weak or reduced against the parent protein; the word gives no strength.
Assays:
Test in all cases: native gel or EMSA
[1] = molecular target: NRT2.1 (wild type, Arabidopsis thaliana Col roots) (Arabidopsis thaliana (endogenous in Col roots)) (UniProt O82811)
[2] = molecular target: NRT2.1 S501A (transgenic plants) (Arabidopsis thaliana) (UniProt O82811)
[3] = molecular target: NRT2.1 S501D (transgenic plants) (Arabidopsis thaliana) (UniProt O82811)

The chains behind the UniProt entries cited, without tags or fusion partners. Where a name states a change or a piece, a line headed by the entry shows the natural chain unless it says otherwise.
UniProt O82811: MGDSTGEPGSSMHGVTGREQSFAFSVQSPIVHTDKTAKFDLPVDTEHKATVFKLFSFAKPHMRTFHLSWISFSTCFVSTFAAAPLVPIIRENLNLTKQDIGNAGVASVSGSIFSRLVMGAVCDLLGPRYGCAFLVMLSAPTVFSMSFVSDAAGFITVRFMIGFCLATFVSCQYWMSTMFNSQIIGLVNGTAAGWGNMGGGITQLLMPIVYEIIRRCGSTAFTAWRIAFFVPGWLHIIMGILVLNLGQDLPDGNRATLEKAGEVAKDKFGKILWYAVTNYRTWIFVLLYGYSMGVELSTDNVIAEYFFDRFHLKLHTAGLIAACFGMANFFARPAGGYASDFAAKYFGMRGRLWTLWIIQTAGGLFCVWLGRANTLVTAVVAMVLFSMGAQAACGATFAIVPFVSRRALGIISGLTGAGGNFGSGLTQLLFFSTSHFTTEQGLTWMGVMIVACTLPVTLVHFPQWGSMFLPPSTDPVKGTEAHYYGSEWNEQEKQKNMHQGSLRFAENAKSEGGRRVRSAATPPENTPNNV

- binding [1]: binds
- binding [2]: binds
- binding [3]: binds
B1: NAR2.1 (Arabidopsis thaliana roots) (protein, UniProt Q9FGS5 23-210)
chain: AEKVRLFKELDKGALDVTTKPSREGPGVVLDAGKDTLNITWTLSSIGSKREAEFKIIKVKLCYAPPSQVDRPWRKTHDELFKDKTCPHKIIAKPYDKTLQSTTWTLERDIPTGTYFVRAYAVDAIGHEVAYGQSTDDAKKTNLFSVQAISGRHASLDIASICFSVFSVVALVVFFVNEKRKAKIEQSK
